Experimental data: publication PMC7199855, “GRAF2, WDR44, and MICAL1 mediate Rab8/10/11–dependent export of E-cadherin, MMP14, and CFTR ΔF508” (The Journal of Cell Biology, 2020)
No constants are given. Whether binding was seen depends on the method and setting. In cells and extracts the contact can be indirect. Some binding calls cover weakened binding; strength is not graded here. Where a sequence is shown, tags or fusion partners need not be part of it.

Columns and labels:
Assay in all cases: co-IP; transfected 293T, IP with α-GFP and Protein G Sepharose; 20 mM Hepes pH 7.4, 150 mM NaCl, 2 mM EDTA, 1% IGEPAL CA-630; Western blot
GFP-WDR44 (human) = molecular target: T1, GFP-WDR44 (human) (UniProt Q5JSH3)
T1 sequence: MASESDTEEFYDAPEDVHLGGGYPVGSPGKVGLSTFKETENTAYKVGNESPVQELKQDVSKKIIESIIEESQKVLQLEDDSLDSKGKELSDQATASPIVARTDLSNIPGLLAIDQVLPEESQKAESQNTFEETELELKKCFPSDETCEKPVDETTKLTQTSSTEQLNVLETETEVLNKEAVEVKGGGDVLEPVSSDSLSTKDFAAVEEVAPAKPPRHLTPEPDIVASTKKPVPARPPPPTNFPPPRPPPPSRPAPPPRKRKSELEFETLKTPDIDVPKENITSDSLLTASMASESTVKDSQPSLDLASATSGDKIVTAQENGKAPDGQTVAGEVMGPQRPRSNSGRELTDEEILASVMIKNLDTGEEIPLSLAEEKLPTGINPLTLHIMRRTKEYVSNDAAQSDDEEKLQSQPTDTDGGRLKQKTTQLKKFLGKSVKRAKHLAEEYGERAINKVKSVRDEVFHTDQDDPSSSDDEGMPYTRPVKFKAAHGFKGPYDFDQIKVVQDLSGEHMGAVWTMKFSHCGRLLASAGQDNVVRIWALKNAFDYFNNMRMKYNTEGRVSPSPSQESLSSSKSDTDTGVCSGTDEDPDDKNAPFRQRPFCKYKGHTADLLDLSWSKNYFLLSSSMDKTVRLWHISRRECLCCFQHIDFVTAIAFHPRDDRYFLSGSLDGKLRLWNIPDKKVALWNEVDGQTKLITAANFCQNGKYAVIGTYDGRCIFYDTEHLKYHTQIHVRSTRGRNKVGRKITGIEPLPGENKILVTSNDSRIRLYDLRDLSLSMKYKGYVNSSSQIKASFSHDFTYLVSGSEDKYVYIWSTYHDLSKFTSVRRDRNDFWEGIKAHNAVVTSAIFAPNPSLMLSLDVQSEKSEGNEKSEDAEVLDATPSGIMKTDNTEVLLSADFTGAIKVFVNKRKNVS

GFP-WDR44 ΔPro (human) = molecular target: T2, GFP-WDR44 ΔPro (human) (UniProt Q5JSH3)
T2 sequence: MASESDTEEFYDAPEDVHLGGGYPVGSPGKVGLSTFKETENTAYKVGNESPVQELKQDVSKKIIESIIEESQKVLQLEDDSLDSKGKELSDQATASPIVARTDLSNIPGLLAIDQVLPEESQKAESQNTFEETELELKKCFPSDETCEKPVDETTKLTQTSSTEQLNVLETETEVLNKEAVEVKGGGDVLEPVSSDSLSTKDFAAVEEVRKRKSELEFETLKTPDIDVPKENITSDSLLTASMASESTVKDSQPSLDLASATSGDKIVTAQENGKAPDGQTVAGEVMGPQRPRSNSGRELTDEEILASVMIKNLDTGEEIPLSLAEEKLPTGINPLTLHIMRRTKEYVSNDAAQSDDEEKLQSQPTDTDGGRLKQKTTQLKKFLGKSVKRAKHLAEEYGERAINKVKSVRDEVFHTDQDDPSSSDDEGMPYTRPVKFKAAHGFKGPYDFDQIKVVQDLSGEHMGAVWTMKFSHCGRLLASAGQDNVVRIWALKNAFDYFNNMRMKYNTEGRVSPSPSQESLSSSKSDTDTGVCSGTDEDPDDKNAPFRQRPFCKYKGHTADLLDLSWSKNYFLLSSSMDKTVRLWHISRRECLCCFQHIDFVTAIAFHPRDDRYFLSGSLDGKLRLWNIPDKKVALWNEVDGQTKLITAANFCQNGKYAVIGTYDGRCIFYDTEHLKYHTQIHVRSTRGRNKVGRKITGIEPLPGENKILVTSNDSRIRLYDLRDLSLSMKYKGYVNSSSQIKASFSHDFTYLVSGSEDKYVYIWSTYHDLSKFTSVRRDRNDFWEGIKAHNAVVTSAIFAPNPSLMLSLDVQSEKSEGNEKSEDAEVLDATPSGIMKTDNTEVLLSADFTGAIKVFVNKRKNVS

GFP–MICAL1 G3W (human) = molecular target: T3, GFP–MICAL1 G3W (human) (UniProt Q8TDZ2)
T3 sequence: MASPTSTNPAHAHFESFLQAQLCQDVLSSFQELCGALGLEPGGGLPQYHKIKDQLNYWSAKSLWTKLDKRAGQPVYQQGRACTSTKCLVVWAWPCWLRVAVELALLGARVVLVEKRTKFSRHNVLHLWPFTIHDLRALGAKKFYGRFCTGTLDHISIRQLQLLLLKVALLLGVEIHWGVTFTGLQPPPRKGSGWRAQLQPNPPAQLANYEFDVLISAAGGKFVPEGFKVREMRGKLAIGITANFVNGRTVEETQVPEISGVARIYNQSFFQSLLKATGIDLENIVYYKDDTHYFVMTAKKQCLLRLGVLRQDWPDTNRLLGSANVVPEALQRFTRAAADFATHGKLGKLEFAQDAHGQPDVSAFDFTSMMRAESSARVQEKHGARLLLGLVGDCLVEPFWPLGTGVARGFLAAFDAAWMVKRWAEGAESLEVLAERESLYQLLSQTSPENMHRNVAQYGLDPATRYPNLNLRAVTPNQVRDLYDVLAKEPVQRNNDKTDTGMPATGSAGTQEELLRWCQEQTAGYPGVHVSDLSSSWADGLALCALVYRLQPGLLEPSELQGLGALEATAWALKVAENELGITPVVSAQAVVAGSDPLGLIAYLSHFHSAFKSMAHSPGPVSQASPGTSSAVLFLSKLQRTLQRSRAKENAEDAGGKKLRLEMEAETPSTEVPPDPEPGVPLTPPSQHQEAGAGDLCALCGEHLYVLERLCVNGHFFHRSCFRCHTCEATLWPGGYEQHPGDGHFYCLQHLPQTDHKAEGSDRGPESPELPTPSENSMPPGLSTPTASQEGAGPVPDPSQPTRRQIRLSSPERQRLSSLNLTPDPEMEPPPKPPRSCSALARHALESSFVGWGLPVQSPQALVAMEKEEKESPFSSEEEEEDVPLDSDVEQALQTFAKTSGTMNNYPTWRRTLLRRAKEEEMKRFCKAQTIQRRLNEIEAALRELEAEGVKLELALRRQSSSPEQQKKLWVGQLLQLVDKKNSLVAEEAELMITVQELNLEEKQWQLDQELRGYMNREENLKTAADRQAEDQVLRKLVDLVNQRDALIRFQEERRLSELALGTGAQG

B1: GRAF1b-myc (protein, UniProt Q9UNA1-2 1-759)
chain: MGLPALEFSDCCLDSPHFRETLKSHEAELDKTNKFIKELIKDGKSLISALKNLSSAKRKFADSLNEFKFQCIGDAETDDEMCIARSLQEFATVLRNLEDERIRMIENASEVLITPLEKFRKEQIGAAKEAKKKYDKETEKYCGILEKHLNLSSKKKESQLQEADSQVDLVRQHFYEVSLEYVFKVQEVQERKMFEFVEPLLAFLQGLFTFYHHGYELAKDFGDFKTQLTISIQNTRNRFEGTRSEVESLMKKMKENPLEHKTISPYTMEGYLYVQEKRHFGTSWVKHYCTYQRDSKQITMVPFDQKSGGKGGEDESVILKSCTRRKTDSIEKRFCFDVEAVDRPGVITMQALSEEDRRLWMEAMDGREPVYNSNKDSQSEGTAQLDSIGFSIIRKCIHAVETRGINEQGLYRIVGVNSRVQKLLSVLMDPKTASETETDICAEWEIKTITSALKTYLRMLPGPLMMYQFQRSFIKAAKLENQESRVSEIHSLVHRLPEKNRQMLQLLMNHLANVANNHKQNLMTVANLGVVFGPTLLRPQEETVAAIMDIKFQNIVIEILIENHEKIFNTVPDMPLTNAQLHLSRKKSSDSKPPSCSERPLTLFHTVQSTEKQEQRNSIINSSLESVSSNPNSILNSSSSLQPNMNSSDPDLAVVKPTRPNSLPPNPSPTSPLSPSWPMFSAPSSPMPTSSTSSDSSPVSTPFRKAKALYACKAEHDSELSFTAGTVFDNVHPSQEPGWLEGTLNGKTGLIPENYVEFL
With B1 the binding (GFP-WDR44 (human)) was “binds”, the binding (GFP-WDR44 ΔPro (human)) was “no binding” and the binding (GFP–MICAL1 G3W (human)) was “binds”.
